According to patent US20210268056A1, “TAXODIONE FOR ITS USE FOR PROTECTING MUSCLE AND MEAT FROM OXIDATION” (CENTRE NATIONAL DE LA RECHERCHE SCIENTIFIQUE, priority 2018, published 2021):

How the values were obtained:
[1] = tested on: minced gastrocnemius muscles from C57BL/6 male mice; assay: Lipid oxidation (TBARS) in minced mouse meat during refrigerated storage; details: BHT 0.010-0.0025%, FIG. 5A
[2] = tested on: minced gastrocnemius muscles from C57BL/6 male mice; assay: Protein oxidation (total thiols) in minced mouse meat during refrigerated storage; details: FIG. 5B
[3] = day 0, CA and TX 0.015-0.00375% w/w minced muscle
[4] = day 7 of storage at 4° C., CA and TX 0.015-0.00375% w/w

Row | SMILES | TBARS values versus control [1, 3] | TBARS values versus control [1, 4] | thiol level in meat, control versus treated ([2]; after 7 days of storage, 0.01% BHT) | total thiol level versus control ([2]; day 0, highest TX concentration (0.015%))
1 | Cc1cc(C(C)(C)C)c(O)c(C(C)(C)C)c1 [BHT, butylated hydroxytoluene] | significantly lower | remained lower than in control | but not | –
2 | CC(C)c1cc2c(c(O)c1O)[C@@]1(C(=O)O)CCCC(C)(C)[C@@H]1CC2 [CA, carnosic acid] | significantly lower | remained lower than in control | – | –
3 | CC(C)C1=CC2=CC(=O)[C@H]3C(C)(C)CCC[C@]3(C)C2=C(O)C1=O [taxodione, (4bS,8aS)-4b,5,6,7,8,8a-hexahydro-4-hydroxy-2-isopropyl-4b,8,8-trimethylphenanthrene-3,9-dione] | significantly lower | remained lower than in control | – | significantly lower

Some entries repeat one wording, which the source may state once for all of them.
